The list shows a part of the results. These are further read-outs of the screen, such as a control signal, another cell line or another target. No call is given for them. Compounds called inactive in the main read-out are mostly missing here. The note in brackets gives the kind of curve behind each potency; many fits are weak.

This assay can be described thus: Cell signaling CRE-BLA (Fsk stim). Particulars: CHO CRE-bla reporter (cAMP response element driving beta-lactamase), forskolin EC10, beta-lactamase ratio; measured here: 460 nm blue channel. The method, boiled down:
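Modulation of forskolin-driven signalling is measured in CHO cells carrying a CRE-controlled beta-lactamase reporter. Cells are stimulated with EC10 NKH 477 in the presence of titrated compound for 3 h at 37 °C, then loaded with CCF4 for 2 h at room temperature.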
A word on the AC50: it is the concentration giving half of the maximal activity seen. On to `CCOc1ncccc1C(=O)OCC(=O)Nc1ncc(C(F)(F)F)cc1Cl`, for which the half-maximal activity concentration (AC50) is 5.01 µM [falling, single point].

Turning to `Cn1c(SCC(=O)Nc2ccccc2)nc(O)cc1=O`, the AC50 is 0.00316 µM [falling, full curve, poor fit].

With `Cc1cc(NC(=O)CSc2ccc3nnc(-c4cccc(F)c4)n3n2)no1`, the concentration at half-maximal activity (AC50) was 0.631 µM [falling, partial curve].

On to `Oc1c(C(Nc2nc3ccccc3s2)c2ccco2)ccc2cccnc12` (centres undefined), for which the AC50 was 20 µM [rising, single point].

As for `O=C(Cn1nnc(-c2ccc(Cl)cc2)n1)NCCC1=CCCCC1`, the AC50 was 5.01 µM [falling, partial curve].

With `CNc1nc(OC)nc(N2CCOCC2)n1`, the AC50 is 10 µM [rising, partial curve].

`CC(C)N(Cc1nc(-c2ccccc2)no1)S(=O)(=O)c1ccccc1`: the half-maximal activity concentration (AC50) is 12.6 µM [falling, single point].

Regarding `O=c1c(-c2cccs2)nc2cnc(Oc3cccc(Cl)c3)nc2n1C1CC1`, the concentration at half-maximal activity (AC50) was 6.31 µM [rising, partial curve].

As to `CCC(CC)C(=O)Nc1cccc(C(=O)N2CCOCC2)c1`, the AC50 was 10 µM [falling, partial curve].

Regarding `N#CCCn1c(=O)c(CCc2ccccc2)nc2cnc(Nc3ccccc3)nc21`, the AC50 is 5.01 µM [rising, partial curve].

Consider `COC(=O)[C@H](CCSC)NC(=O)Nc1ccc(OC)cc1`, for which the half-maximal activity concentration (AC50) is 3.16 µM [rising, single point].

For `COc1ccccc1NC(=O)Cn1c(=O)n2nc(C)nc2c2ccccc21`, the AC50 is 7.94 µM [rising, partial curve].

With `Cc1nc2cnc(N3CCN(C)CC3)nc2n(-c2ccccc2)c1=O`, the AC50 was 12.6 µM [rising, partial curve].

Consider `COc1cccc(C(=O)CSc2nnc(COc3cccc4cccnc34)o2)c1`, for which the AC50 is 10 µM [rising, partial curve].

As to `O=c1[nH]nc(Sc2ncnc3sccc23)n1CCc1ccccc1`, the concentration at half-maximal activity (AC50) is 2.51 µM [falling, full curve].

With `Cc1cccc(S(=O)(=O)c2c(N)n(/N=C/c3ccco3)c3nc4ccccc4nc23)c1`, the AC50 was 6.31 µM [rising, partial curve].

`O=C1c2ccccc2NC(c2ccc(Cl)cc2Cl)N1O` (centres undefined): the AC50 was 12.6 µM [falling, partial curve].

For `COc1ccc(C(=O)N2CCC3(CCN(C(=O)Nc4cccc(C#N)c4)CC3)CC2)cc1`, the AC50 was 25.1 µM [rising, single point].

On to `COc1cccc(C2=NOC(C(=O)Nc3cc(OC)c(OC)c(OC)c3)C2)c1` (centres undefined), for which the half-maximal activity concentration (AC50) was 7.94 µM [rising, partial curve].

In the case of `COCCn1c(=O)c(-c2cc(F)cc(F)c2)nc2cnc(OCc3ccccc3)nc21`, the concentration at half-maximal activity (AC50) was 25.1 µM [rising, single point].

With `Nc1nc(SC/C=C\c2ccccc2)c2[nH]cnc2n1`, the AC50 is 1.58 µM [rising, partial curve].

With `COc1cc(C(=O)Nc2nncs2)cc(OC)c1OC`, the AC50 is 12.6 µM [rising, single point].

Turning to `COc1cc(-c2csc(N3CCOCC3)n2)cc(OC)c1OC`, the AC50 is 12.6 µM [rising, partial curve].

In the case of `COCCn1c(-c2ccc(-c3ccccc3Cl)o2)nc2c1c(=O)[nH]c(=O)n2CC(C)C`, the AC50 is 7.94 µM [rising, partial curve].

Turning to `COc1ccc2cc(C(=O)N3CCCCCC3)sc(=O)c2c1OC`, the AC50 is 12.6 µM [rising, single point].

For `COCCCN1C(=O)C(=O)/C(=C(/O)c2ccc(OC(C)C)cc2)C1c1ccc(O)c(OC)c1` (centres undefined), the half-maximal activity concentration (AC50) was 0.0794 µM [falling, single point].

As for `CCOC(=O)n1c(SCC(=O)N(CC)CC)nc2ccccc21`, the AC50 was 12.6 µM [rising, partial curve].

With `Cc1nc2ncnn2c(N2CCN(C(c3ccccc3)c3ccccc3)CC2)c1C`, the concentration at half-maximal activity (AC50) was 20 µM [falling, single point].

Consider `CC1CCCN(C(=O)c2cc3c(-c4ccc(Cl)cc4)nn(C)c3s2)C1` (centres undefined), for which the AC50 is 2.51 µM [rising, full curve].

As for `Cc1ccc(C(=O)Nc2nccs2)cc1S(=O)(=O)N1CCCCC1`, the AC50 was 20 µM [rising, single point].

Turning to `Cn1nc(-c2ccc(Cl)cc2)c2cc(C(=O)N3CCN(c4ccccn4)CC3)sc21`, the AC50 is 3.98 µM [rising, partial curve].

As to `CCOc1ccc(OCC)c(NC(=O)C2CCN(c3ncccn3)CC2)c1`, the AC50 was 12.6 µM [rising, partial curve].

In the case of `COc1ccc(Cn2nnc3c(=O)[nH]c(C(=O)NCCc4ccc(F)cc4)nc32)cc1OC`, the AC50 is 7.94 µM [rising, partial curve].

With `Cc1ccc2c(c1)CCCN2C(=O)c1c(C)noc1C`, the half-maximal activity concentration (AC50) is 3.16 µM [falling, full curve].

Take `O=C(Nc1ccc2oc(-c3ccccc3)nc2c1)c1ccncc1`: the AC50 is 3.98 µM [rising, partial curve].

Consider `Cc1sc2nc(SCC(=O)N3CCOCC3)[nH]c(=O)c2c1C`, for which the concentration at half-maximal activity (AC50) is 10 µM [rising, single point].

Regarding `O=C(Nc1ccc2nn(-c3ccccc3)nc2c1)c1ccc2c(c1)OCCO2`, the AC50 is 10 µM [falling, partial curve].

Regarding `Cc1cc(C)n2nc(SCN3C(=O)c4ccccc4C3=O)nc2n1`, the concentration at half-maximal activity (AC50) was 10 µM [rising, partial curve].

In the case of `O=C(Cn1cnc2ccccc2c1=O)NCC(=O)N1CCN(c2ccccn2)CC1`, the AC50 was 0.0398 µM [falling, full curve].

For the compound `CC(C)n1cc(/C=C(\C#N)S(=O)(=O)c2ccccc2)c2ccccc21`, the AC50 is 2 µM [rising, full curve, poor fit].

With `Cc1occc1-c1nnc(SCC(=O)NCc2cccs2)n1-c1ccc(F)cc1`, the AC50 is 20 µM [rising, single point].

For the compound `C=CCn1cnc2c(c1=O)c1nc3ccccc3nc1n2/N=C/c1cccc(OC)c1`, the AC50 was 12.6 µM [rising, single point].

`O=C(NC1CCCC1)C(c1cccs1)N(CC1CCCO1)C(=O)Cc1cccs1` (centres undefined): the AC50 is 0.0251 µM [falling, full curve, poor fit].

In the case of `COc1ccc(-c2noc(CCN3C(=O)c4ccccc4C3=O)n2)cc1OC`, the concentration at half-maximal activity (AC50) was 6.31 µM [rising, partial curve].

The values are drawn from PubChem BioAssay AID662 (National Center for Advancing Translational Sciences (NCATS), 2007).
